# US20040161781A1, “Compositions and methods for identifying thymidylate synthase modulators” (priority 2002, published 2004)
# For at least one compound, name, drawing or mass did not settle the structure.
# System: thymidylate synthase (TS)
# Test: Luciferase assay in stably transfected H630-C6 cells (pG3E1-2TBE-Neo)
# Assay type: cell-based, human
# Settings: 18 hr exposure
# Method: FIGS. 3a-3j. RLU production in H630-C6 cells in response to TS inhibitors. H630-C6 cells were evaluated for luciferase activity in response to treatment with the indicated compounds. The cells were exposed to the compounds at the indicated concentrations for 18 hr and luciferase assays were then performed according to the manufacturer's instructions. The mean values of triplicates or quadruplicates are shown along with the standard derivations.
# This example describes the stable transfection of cells with the DNA construct of the present invention. To facilitate selection of stable transformants, we added a neomycin-resistance gene to the pG3E1-2TBE (FIG. 1) to generate a new plasmid termed pG3E1-2TBE-Neo as follows. […]
# The stably transfected H630-C6 cell line was maintained in RPMI 1640 plus 10% dialyzed FBS and 400 μg/ml of geneticin (G418). […] Relative light units (RLU) were measured with a Lumat LB 9501 luminometer (EG & G Berthold, Wildbad, Germany).
# To test H630-C6 as a tool to identify TS modulators three different classes of compounds, i.e., specific or predominantly specific TS inhibitors, agents that inhibit folate pathways or inhibit TS as well as having other targets, and agents that act through TS unrelated sites of action were evaluated for their ability to induce changes in luciferase activity.
smiles,measurement,value
"CN[C@@H]1[C@@H](O)[C@@H](O[C@@H]2[C@@H](O)[C@H](O[C@H]3O[C@H]([C@@H](C)O)[C@@H](O)[C@H](O)[C@H]3N)[C@@H](N)C[C@H]2N)OC[C@]1(C)O [G418, geneticin]","change in luciferase activity (RLU), in words",no increase
